From the supplement of paper PMC5407854, “Inhibitor of ppGalNAc-T3-mediated O-glycosylation blocks cancer cell invasiveness and lowers FGF23 levels” (eLife, 2017)
Over roughly 1,700 compounds, “T3 sensor activation Q score (MG/GFP ratio z-score vs DMSO controls)” has its median near 0.25; the highest 2% begin near 1.9. Some of the results follow.

Tested on: ppGalNAc-T3 sensor
Experiment: T3 sensor activation Q score (MG/GFP ratio z-score vs DMSO controls) (SD units); higher = more sensor activation (inhibition of ppGalNAc-T3 glycosylation)
Settings: HEK293 sensor cells; 10 µM; 6 h
Experimental: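 Cells were treated with compound at 10 uM for 6 h, then MG/GFP ratio was read by flow cytometry (10,000 cells per well, duplicate wells). Q = (R - R_neg)/SD_neg relative to DMSO vehicle controls; the signal rises when the glycosyltransferase is inhibited.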

Row | SMILES | T3 sensor activation Q score
1 | COc1c2occc2cc2ccc(=O)oc12 | 0.85
2 | Cn1ncc2c(=O)[nH]c(N)nc21 | 1.6
3 | CC(C)=C(c1ccc(Cl)cc1)c1c(N)ncnc1N | -0.25
4 | COc1cc2c(cc1OC)[N+]([O-])=C(c1ccccc1)C2=O | 0.9
5 | Cn1cnc([N+](=O)[O-])c1Sc1nnc(-c2cccnc2)n1C | -0.4
6 | COc1ccccc1N=NNc1ccccc1OC | -0.1
7 | N#Cc1ccc(C(c2ccc(C#N)cc2)n2cncn2)cc1 | 0.15
8 | NC(=O)c1ccc2c(c1)S(=O)(=O)c1ccccc1C2=O | 1.25
9 | COC(=O)Cc1[nH]c(Cl)nc1C(N)=O | -1.15
10 | CC1=C(C#N)C(C)(C)C(C#N)=C(C)N1 | 1.5
11 | COc1ccc(C(=O)Oc2ccc[nH]c2=O)cc1 | -0.9
12 | O=C(O)c1ccc(O)c(O)c1 | -0.75
13 | CCCCCCCCCCCCC(NC(C)=O)(C(=O)OCC)C(=O)OCC | 0.1
14 | CCN(CC)CCNC(=O)C(Cl)=C1C(Cl)=C(Cl)C(Cl)=C1Cl | -0.2
15 | CCOC(=O)c1cc2c(OC)c(OC)ccc2c2[nH]cc(C#N)c(=O)c12 | 0.7
16 | O=C(O)/C=C/C(=O)N1Cc2cc3ccccc3nc2C1 | -0.05
17 | Cn1c(=O)c2[nH]c(CNc3ccc(C(=O)O)cc3)nc2n(C)c1=O | -0.05
18 | Cc1cnc(SCc2ccc(Cl)cc2Cl)[nH]c1=O | -0.3
19 | CC(=O)C1C=CC(C)(C(=O)O)C2C=C(C)C(=O)C(C)(O)C12 (configuration not stated) | 1.45
20 | COc1ccc2nc3cc(Cl)ccc3c(Nc3cc(C(C)C)c(O)cc3C)c2c1 | 0.65
21 | Nc1cc([N+](=O)[O-])ccc1Nc1ccc(O)cc1 | 0.9

Row | SMILES | T3 sensor activation Q score
22 | COc1c(O)ccc2c1CN1CCc3cc4c(cc3C1C2)OCO4 (configuration not stated) | 0.1
23 | Nc1ccc(/C=C/c2ccc3ncccc3c2)cc1 | 0.55
24 | O=C(O)c1nc2nc(Cl)c(Cl)nc2[nH]1 | 0.1
25 | Cc1[nH]ccc2c1[nH]c1cc(=O)ccc12 | -0.35
26 | Cn1c(CO)cnc1-c1ccccc1 | 0.3
27 | CC1(C)C2CCC(CN=C(N)CSS(=O)(=O)O)C1C2 (configuration not stated) | 1.1
28 | CC1=NCC(C)c2ccccc21 (configuration not stated) | 1.3
29 | COc1cc2oc3cc(C)oc(=O)c3c2cc1OC | -0.8
30 | COc1cc(C(=O)c2cocc2C(=O)c2ccc3c(c2)OCO3)cc(OC)c1OC | 0.55
31 | Nc1ccc(SCc2nc3cccc4c3n2CCC4)cc1 | -0.1
32 | COc1cccc2nc3cc(C)c(C)cc3nc12 | 0.25
33 | CCN1CCC(Nc2ccnc3cc(Cl)ccc23)CC1 | 1.3
34 | CC(=O)Nc1ccc(OCCOc2ccc([N+](=O)[O-])cc2)cc1 | 1.6
35 | O=c1cc(-c2ccccc2)nc2cc(-c3ccco3)[nH]n12 | 0.35
36 | CN(C)c1ccc(C(c2ccc(N(C)C)cc2)c2ccc([N+](=O)[O-])cc2)cc1 | 0.2
37 | COc1ccc2c3c([nH]c2c1)[C@H]1C[C@H]2[C@H](C[C@@H](O)[C@H](OC)[C@H]2C(=O)O)CN1CC3 | -0.25
38 | CCCCC(=O)N(CCC)CCC | 0.1
39 | NC(N)=NS(=O)(=O)c1ccc(N=C2C(=O)Nc3ccccc32)cc1 | 0.3
40 | CCC(CO)Nc1nc2ccc(Cl)cc2c2ccccc12 (configuration not stated) | 0.85
41 | O=C(Nc1ccsn1)c1ccc(Cl)cc1Cl | 0.55
42 | Cc1cc(=O)n2c3c(c4c(cc13)c(CN(C)C)cc(=O)n4C)OC2 | 1

Two of these compounds in a different format:
Nc1ccc(/C=C/c2ccc3ncccc3c2)cc1
  T3 sensor activation Q score: 0.55
O=C(O)c1nc2nc(Cl)c(Cl)nc2[nH]1
  T3 sensor activation Q score: 0.1

Quoted from the listing (2 entries):
Row | SMILES | T3 sensor activation Q score
23 | Nc1ccc(/C=C/c2ccc3ncccc3c2)cc1 | 0.55
24 | O=C(O)c1nc2nc(Cl)c(Cl)nc2[nH]1 | 0.1

(next part)

Row | SMILES | T3 sensor activation Q score
43 | Oc1cccc2cnccc12 | 1.35
44 | CCOC(=O)C1CC(C)=C(C)CC1C(=O)O (configuration not stated) | 1.5
45 | CC(=O)Nc1cccc(-n2c(=O)n(C3CC3)c(=O)c3c(Nc4ccc(I)cc4F)n(C)c(=O)c(C)c32)c1 | -0.9
46 | CSc1cccc(NC(=O)Nc2ccccc2C(N)=O)c1 | 0.9
47 | Cc1c(-c2ccccc2)n(O)[n+]([O-])c1-c1ccccc1 | 0.7
48 | COc1cc(C(O)c2nc3ccccc3s2)cc(OC)c1OC (configuration not stated) | -0.9
49 | CCOC(=O)/C=C/c1ccc(C(=O)OCC)[nH]1 | -1.5
50 | O=C1CCCC1C(=O)Nc1ccc2ccccc2c1 (configuration not stated) | 0
51 | COC(=O)C1(C)Cc2cc(OC(C)=O)c(OC(C)=O)cc2N1 (configuration not stated) | 0.15
52 | CN1CCN(C(=O)/C=C/c2ccc([N+](=O)[O-])o2)CC1 | 0.65
53 | N#C/C(=C\c1cccnc1)c1ccc(Br)cc1 | -1
54 | Clc1nc2nc3n(c2nc1Cl)CCC3 | 0
55 | CN(C)CC1C2CCC(C2)C1O (configuration not stated) | 0.4
56 | CCOC(=O)Nc1ccc2nc(Sc3ccc(Cl)cc3)sc2c1 | 0.55
57 | COc1cc(C2NC(=O)C(C#N)=C(Nc3cccc(C)c3)S2)ccc1O (configuration not stated) | 1.6
58 | Cc1ccc(Nc2ccc(N)cc2S(=O)(=O)O)cc1 | 0.1
59 | N=C1CCC(=N)c2c1c(O)c1ccccc1c2O | 0
60 | CC(=O)Nc1ccc(OC(=O)Oc2ccc(NC(C)=O)cc2)cc1 | 0.05
61 | CCCCn1cnc2c(=S)nc(N)[nH]c21 | -0.25
62 | COc1ccc2c3c1OC1CC(O)C=CC31CCN(C)C2 (configuration not stated) | 1.1
